Where a name gives a salt, the structure may show the parent alone. Hit rate of the full screen: of about 5,300 compounds, about 130 (2.5%) showed an effect of 50% or more. This is one part of the list.
Each compound was assayed on M. mycetomatis strain mm55. Settings: primary screen, metabolic activity vs growth control; 96 h, 2 µM; inhibitor.

SMILES	% viability
COc1cc(/C=C2\CCC/C(=C\c3ccc(O)c(OC)c3)C2=O)ccc1O [ONC0002119, cyclovalone]	87.12%
Cc1ncc([N+](=O)[O-])n1CC(O)CCl (centres unmarked) [ONC0003978, ornidazole]	69.31%
N#Cc1ccc2[nH]cc(CCCCN3CCN(c4ccc5oc(C(N)=O)cc5c4)CC3)c2c1 [ONC0003916, vilazodone hydrochloride]	81.34%
Cc1cccc(C)c1NC(=O)C1CCCCN1C (centres unmarked) [ONC0002445, mepivacaine hydrochloride]	111.1%
COc1ccc(C2C(=O)c3ccccc3C2=O)cc1 [ONC0004151, anisindione]	108.5%
O=C(c1ccccn1)c1cnn2c(-c3ccncc3)ccnc12 [ONC0001896, ocinaplon]	62.52%
CN(C)c1ccc2nc3ccc(=[N+](C)C)cc-3sc2c1 [ONC0004147, methylene blue]	79.22%
NC(=O)N1c2ccccc2CC(O)c2ccccc21 (centres unmarked) [ONC0000143, licarbazepine]	71.66%
O=C(Nc1ccccc1)c1ccccc1O [ONC0003338, acetylsalicylanilide]	88%
FC(F)(F)c1ccc(CNc2ccc(Cc3c[nH]c4ncc(Cl)cc34)cn2)cn1 [ONC0001192, pexidartinib]	74.33%
COc1ccccc1C(=O)Nc1cccc(NC(=O)c2cccc(C)c2)c1 [ONC0003018, ml365]	119.2%
OCCNC1CCCc2c1[nH]c1ccc(-c3ccccc3)cc21 (centres unmarked) [ONC0003116, casin]	73.94%
O=C(CCCCCCC(=O)NO)NO [ONC0001756, sbha]	85.39%
O=C(Nc1ccc(S(=O)(=O)Nc2nccs2)cc1)C(c1ccccc1)c1ccccc1 [ONC0000915, ica121431]	66.28%
O=C1c2ccccc2-c2c(NCCc3ccccc3)c(=O)[nH]c3cccc1c23 [ONC0001816, brd7389]	84.69%
CO/N=C(\C(=O)N[C@@H]1C(=O)N2C(C(=O)O)=C(CSc3nc(=O)c(=O)[nH]n3C)CS[C@H]12)c1csc(N)n1 [ONC0002887, ceftriaxone sodium trihydrate]	67.76%
C[C@H]1CCO[C@H]2Cn3cc(C(=O)NCc4ccc(F)cc4F)c(=O)c(O)c3C(=O)N21 [ONC0005021, dolutegravir gsk1349572]	76.89%
CCCOc1ccc2c(c1)CC[C@@H]1[C@@H]2CC[C@]2(C)[C@@H](OC)CC[C@@H]12 [ONC0004758, promestriene]	100.2%
C[Se]CCC(N)C(=O)O (centres unmarked) [ONC0005356, selenomethionine]	116.1%
Fc1cc(F)c2c(c1)[C@H]1C=CC[C@H]1C(c1cccnc1)N2 (mixture of isomers) [ONC0005186, golgicide a]	78.39%
Cc1cccc(/C=N/Nc2cc(N3CCOCC3)n3nc(-c4ccncc4)cc3n2)c1 [ONC0001850, apy0201]	75.86%
CC(C)[C@H](CO)Nc1nc(Nc2cccc(Cl)c2)c2ncn(C(C)C)c2n1 [ONC0001475, purvalanola]	75.49%

As entered above:
% viability, COc1ccccc1C(=O)Nc1cccc(NC(=O)c2cccc(C)c2)c1 [ONC0003018, ml365] reads 119.2%
% viability, Cc1cccc(C)c1NC(=O)C1CCCCN1C (centres unmarked) [ONC0002445, mepivacaine hydrochloride] reads 111.1%
% viability, N#Cc1ccc2[nH]cc(CCCCN3CCN(c4ccc5oc(C(N)=O)cc5c4)CC3)c2c1 [ONC0003916, vilazodone hydrochloride] reads 81.34%

(more compounds)

SMILES	% viability
Cc1[nH]c(=O)c(C#N)cc1-c1ccncc1 [ONC0004020, milrinone]	62.46%
N#Cc1c[nH]c2c(C(=O)N3CCN(CCc4ccc(F)cc4)CC3)cccc12 [ONC0002198, pruvanserin]	102.9%
CN(C)CCC=C1c2ccccc2CCc2ccccc21 [ONC0003200, amitriptyline hydrochloride]	117.8%
Cc1ccnc2c1NC(=O)c1cccnc1N2C1CC1 [ONC0002459, nevirapine]	62.76%
C#C[C@]1(O)CC[C@H]2[C@@H]3CCc4cc(OC5CCCC5)ccc4[C@H]3CC[C@@]21C [ONC0004086, quinestrol]	135.7%
CC(=O)c1cc([N+](=O)[O-])c(Sc2cccc(Cl)c2Cl)s1 [ONC0005124, p5091 p005091]	122.7%
Oc1ccc(Cl)c2c1CCC2 [ONC0002182, chlorindanol]	87.34%
CCN1C(C)(C)CC(Oc2ccc(C(=O)Nc3ccc(NC(=O)Nc4cc(C(C)(C)C)on4)cc3)nc2)CC1(C)C [ONC0001761, ac710]	92.29%
CS(=O)(=O)c1ccc(C2=C(c3ccccc3)C(=O)OC2)cc1 [ONC0001095, rofecoxib]	82.56%
CCC/C=C1\OC(=O)C2=C1CCC=C2 [ONC0002227, ligustilide]	61.12%
Cn1c(=O)c2[nH]cnc2n(C)c1=O [ONC0000574, theophylline]	77.82%
COc1ccc(N(C)c2nc(C)nc3ccccc23)cc1 [ONC0001332, verubulin]	79.48%
COc1cc(N)c(Cl)cc1C(=O)NC1CN2CCC1CC2 (centres unmarked) [ONC0002762, zacopride]	121.8%
CN(C(=O)c1ccc(F)cc1C(F)(F)F)C1CCN(c2nnc(-c3ccnn3C)c3ccccc23)CC1 [ONC0002243, taladegib]	65.41%
COc1cc2c(cc1OC)CN(CCc1ccc(NC(=O)c3cc(OC)c(OC)cc3NC(=O)c3cnc4ccccc4c3)cc1)CC2 [ONC0004365, tariquidar]	119.7%
CN(CCc1ccc(Cl)c(Cl)c1)CCN1CCCC1 [ONC0000135, bd1008]	97.22%
COc1cc(Cc2cnc(N)nc2N)cc(OC)c1OC [ONC0003250, trimethoprim]	82.12%
COc1ccc([C@H]2CNC(=O)C2)cc1OC1CCCC1 [ONC0002726, roliprams]	79.57%
CCN(CC)CCOC(=O)C(c1ccccc1)C1CCCCC1 (centres unmarked) [ONC0003180, drofenine hydrochloride]	119.4%
COCC1=C(C(=O)OC(C)OC(=O)OC(C)C)N2C(=O)[C@@H](NC(=O)/C(=N\OC)c3csc(N)n3)[C@H]2SC1 (some centres unmarked) [ONC0001902, cefpodoxime]	68.01%
CCCCCCCCCCCCC/C=C/[C@@H](O)[C@@H](N)COP(=O)(O)OCC[N+](C)(C)C [ONC0002992, sphingosylphosphorylcholine]	58.19%
COc1ccccc1C1(O)CCN(CCCn2c3ccccc3c3ccccc32)CC1 [ONC0003043, nnc052090]	75.31%

SMILES	% viability
COc1ccc2c(c1)C=C1Cn3c-2c(C2CCCCC2)c2ccc(cc23)C(=O)NS(=O)(=O)N(C)CCOCCN(C)C1=O [ONC0000837, tmc647055 choline salt]	82.86%
CC(C)(C)c1ccc(CN2CCN(C(c3ccccc3)c3ccc(Cl)cc3)CC2)cc1 (centres unmarked) [ONC0001993, buclizine]	93.43%
C[C@@H](c1ccc2nccn2c1)n1nnc2ncc(-c3cnn(C)c3)nc21 [ONC0001055, savolitinib]	98.39%
Cc1cc(N2CCCCC2)nc2ccccc12 [ONC0001185, ml204]	94.66%
C=CCOc1ccc(CC(=O)O)cc1Cl [ONC0005454, alclofenac]	118.7%
COC(=O)C1=C(C)NC(C)=C(C(=O)O[C@H]2CCN(Cc3ccccc3)C2)[C@H]1c1cccc([N+](=O)[O-])c1 [ONC0003371, barnidipine hcl]	69.9%
O=C(O)CCc1c[nH]c2ccccc12 [ONC0002848, 3indolepropionic acid]	92.43%
CC1(COc2ccc3c(c2)ncn3-c2ccc3cccc(N4CCC(N)CC4)c3n2)COC1 [ONC0005080, crenolanib cp868596]	89.76%
OCCCNc1ccccc1 [ONC0003715, 3anilinopropan1ol]	126.6%
CC(=O)c1ccc2c(c1)N(CCCN1CCC(CCO)CC1)c1ccccc1S2 [ONC0003795, piperacetazine]	78.77%
N#Cc1cn([C@@H]2O[C@H](CO)[C@@H](O)[C@H]2O)c2ncnc(N)c12 [ONC0003230, toyocamycin]	99.22%
CO[C@@]1(NC(=O)Cc2cccs2)C(=O)N2C(C(=O)O)=C(COC(N)=O)CS[C@@H]21 [ONC0000614, cefoxitin sodium]	103.5%
Cc1cccc(C(C)c2cnc[nH]2)c1C (centres unmarked) [ONC0000020, medetomidine]	129.2%
C[N+]1(C)CCCC(OC(=O)C(O)(c2ccccc2)c2ccccc2)C1 (centres unmarked) [ONC0000467, mepenzolate bromide]	73.84%
C[C@@H](Oc1cc(-n2cnc3ccc(CN4CCN(C)CC4)cc32)sc1C(N)=O)c1ccccc1C(F)(F)F [ONC0004607, gsk461364]	78.32%
O=C(CCCN1CCC(O)(c2ccc(Br)cc2)CC1)c1ccc(F)cc1 [ONC0004033, bromperidol]	59.81%
Cc1cc(-c2nc3cc(F)ccc3s2)ccc1NC(=O)[C@@H](N)CCCCN [ONC0001974, phortress]	72.02%
COc1ccc(S(=O)(=O)Nc2nc(-c3cccc([N+](=O)[O-])c3)cs2)cc1OC [ONC0002261, ro 618048]	90.96%
CNCC[C@H](Oc1cccc2ccccc12)c1cccs1 [ONC0003995, duloxetine hydrochloride]	75.72%
Nc1cccc2c(=O)[nH][nH]c(=O)c12 [ONC0001171, luminol]	97.7%
CCCCCCCCCCC(O)C1C=CC2C(=O)N(c3ccccc3)C(=O)C2N1Nc1ccc([N+](=O)[O-])cc1 (centres unmarked) [ONC0001250, a12b4c3]	87.51%

A different layout for part of the listing above.
SMILES | % viability
O=C(O)CCc1c[nH]c2ccccc12 [ONC0002848, 3indolepropionic acid] | 92.43%
CC1(COc2ccc3c(c2)ncn3-c2ccc3cccc(N4CCC(N)CC4)c3n2)COC1 [ONC0005080, crenolanib cp868596] | 89.76%

Source: article PMC12670160, “A drug-repurposing screen of FDA- and EMA-approved drugs identifies two NF-κB inhibitors active against eumycetoma” (Journal of Antimicrobial Chemotherapy, 2025)
